Our source for the binding values is article PMC3630842.

Chains of the proteins cited; added tags and fusions are not shown. Lines headed by an entry give the natural chain unless they say otherwise; changes in a name come on top. A line that says so, or that is headed by a name, gives the form on record, which may keep a tag or linker. Residues count along the entry.
D1080N interphotoreceptor retinoid-binding protein (D1080N IRBP) (P10745, form named): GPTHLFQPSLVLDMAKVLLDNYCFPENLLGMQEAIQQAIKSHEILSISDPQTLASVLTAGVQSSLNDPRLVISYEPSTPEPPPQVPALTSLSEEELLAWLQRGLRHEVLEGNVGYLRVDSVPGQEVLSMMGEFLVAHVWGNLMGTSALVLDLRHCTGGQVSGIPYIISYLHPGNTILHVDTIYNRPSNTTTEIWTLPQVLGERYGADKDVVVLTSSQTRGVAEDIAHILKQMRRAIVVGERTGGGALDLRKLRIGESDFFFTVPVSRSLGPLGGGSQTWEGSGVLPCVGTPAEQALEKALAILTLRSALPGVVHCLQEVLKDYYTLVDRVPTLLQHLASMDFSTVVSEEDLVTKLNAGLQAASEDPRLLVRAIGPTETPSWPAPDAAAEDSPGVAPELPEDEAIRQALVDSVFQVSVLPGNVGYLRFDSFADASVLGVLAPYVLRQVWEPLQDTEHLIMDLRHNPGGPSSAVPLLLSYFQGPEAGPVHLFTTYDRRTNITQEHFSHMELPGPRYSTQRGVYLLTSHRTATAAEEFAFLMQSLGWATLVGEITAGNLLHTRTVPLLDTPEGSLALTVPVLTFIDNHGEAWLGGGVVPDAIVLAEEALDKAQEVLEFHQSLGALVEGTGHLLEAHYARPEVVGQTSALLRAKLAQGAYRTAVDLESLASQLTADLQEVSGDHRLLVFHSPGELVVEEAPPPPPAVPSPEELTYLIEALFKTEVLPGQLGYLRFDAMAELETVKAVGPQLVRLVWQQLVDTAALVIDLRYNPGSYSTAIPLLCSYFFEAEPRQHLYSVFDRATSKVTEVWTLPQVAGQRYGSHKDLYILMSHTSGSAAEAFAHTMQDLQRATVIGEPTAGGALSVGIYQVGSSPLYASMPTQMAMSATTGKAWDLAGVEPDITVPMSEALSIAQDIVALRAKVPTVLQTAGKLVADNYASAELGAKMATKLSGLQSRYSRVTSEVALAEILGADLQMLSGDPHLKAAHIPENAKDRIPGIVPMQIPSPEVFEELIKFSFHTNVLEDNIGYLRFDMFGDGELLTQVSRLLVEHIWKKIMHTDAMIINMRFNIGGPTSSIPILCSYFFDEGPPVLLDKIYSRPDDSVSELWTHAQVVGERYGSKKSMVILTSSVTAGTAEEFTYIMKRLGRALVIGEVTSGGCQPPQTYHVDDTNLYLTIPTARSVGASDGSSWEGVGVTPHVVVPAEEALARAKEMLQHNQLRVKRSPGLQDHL
UniProt P14625, residues 22-803: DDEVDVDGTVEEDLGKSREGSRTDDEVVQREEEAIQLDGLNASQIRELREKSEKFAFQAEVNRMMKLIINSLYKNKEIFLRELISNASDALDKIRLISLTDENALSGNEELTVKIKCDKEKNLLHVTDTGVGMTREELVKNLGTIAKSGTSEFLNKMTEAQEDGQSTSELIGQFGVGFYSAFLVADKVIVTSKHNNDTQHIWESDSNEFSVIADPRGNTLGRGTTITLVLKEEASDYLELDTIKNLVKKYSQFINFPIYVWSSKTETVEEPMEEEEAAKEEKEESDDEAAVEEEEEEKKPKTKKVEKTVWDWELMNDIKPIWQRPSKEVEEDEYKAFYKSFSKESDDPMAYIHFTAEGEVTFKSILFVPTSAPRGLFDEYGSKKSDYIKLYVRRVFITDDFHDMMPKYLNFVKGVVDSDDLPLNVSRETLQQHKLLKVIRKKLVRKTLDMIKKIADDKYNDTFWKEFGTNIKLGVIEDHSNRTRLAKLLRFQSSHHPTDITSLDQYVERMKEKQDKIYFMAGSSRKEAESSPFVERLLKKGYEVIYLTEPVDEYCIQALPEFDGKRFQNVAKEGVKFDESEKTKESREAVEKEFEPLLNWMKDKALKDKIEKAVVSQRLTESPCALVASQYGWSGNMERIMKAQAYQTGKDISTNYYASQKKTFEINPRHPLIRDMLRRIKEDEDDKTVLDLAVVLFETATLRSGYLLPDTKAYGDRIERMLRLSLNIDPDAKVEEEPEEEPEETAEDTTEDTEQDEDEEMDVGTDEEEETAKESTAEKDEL
UniProt P0DMV8: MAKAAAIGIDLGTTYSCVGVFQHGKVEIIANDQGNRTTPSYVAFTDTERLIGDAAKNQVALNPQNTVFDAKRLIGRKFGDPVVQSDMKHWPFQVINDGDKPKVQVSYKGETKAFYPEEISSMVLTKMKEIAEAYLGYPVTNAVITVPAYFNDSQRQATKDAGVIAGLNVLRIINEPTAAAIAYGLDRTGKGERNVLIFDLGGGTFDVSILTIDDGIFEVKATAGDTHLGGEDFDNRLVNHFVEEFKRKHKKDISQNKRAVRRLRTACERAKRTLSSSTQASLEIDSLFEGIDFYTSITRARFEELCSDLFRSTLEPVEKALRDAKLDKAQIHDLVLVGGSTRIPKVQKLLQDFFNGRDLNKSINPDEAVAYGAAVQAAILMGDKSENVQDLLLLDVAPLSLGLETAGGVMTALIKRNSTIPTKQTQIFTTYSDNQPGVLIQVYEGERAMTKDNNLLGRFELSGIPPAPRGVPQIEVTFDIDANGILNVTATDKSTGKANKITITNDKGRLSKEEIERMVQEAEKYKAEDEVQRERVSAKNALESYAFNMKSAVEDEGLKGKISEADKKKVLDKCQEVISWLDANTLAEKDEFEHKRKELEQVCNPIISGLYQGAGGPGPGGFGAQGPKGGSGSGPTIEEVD
UniProt P10809, residues 27-573: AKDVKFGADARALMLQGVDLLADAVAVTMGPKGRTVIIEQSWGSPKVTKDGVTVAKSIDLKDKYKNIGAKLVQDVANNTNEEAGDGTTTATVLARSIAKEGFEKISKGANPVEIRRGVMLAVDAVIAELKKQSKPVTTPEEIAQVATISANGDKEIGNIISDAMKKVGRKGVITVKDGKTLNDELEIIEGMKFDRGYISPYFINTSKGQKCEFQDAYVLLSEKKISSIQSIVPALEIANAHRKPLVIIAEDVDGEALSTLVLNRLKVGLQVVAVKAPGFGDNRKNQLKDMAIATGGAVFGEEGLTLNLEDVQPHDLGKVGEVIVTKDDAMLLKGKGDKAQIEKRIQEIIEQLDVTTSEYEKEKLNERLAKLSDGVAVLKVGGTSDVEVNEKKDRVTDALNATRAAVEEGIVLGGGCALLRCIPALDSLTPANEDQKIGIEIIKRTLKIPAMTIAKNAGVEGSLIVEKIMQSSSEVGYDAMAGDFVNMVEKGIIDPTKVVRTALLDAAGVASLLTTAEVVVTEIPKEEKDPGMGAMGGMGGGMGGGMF

No constants are given. Whether binding was seen depends on the method and setting. In cells and extracts the contact can be indirect. These calls come from enrichment with a bait or labelling near it, and not all partners need be listed.

In the assay the target is D1080N interphotoreceptor retinoid-binding protein (D1080N IRBP) (human) (UniProt P10745). In words: affinity purification with mass spectrometry; 293T-LC cells expressing WT or D1080N IRBP; immunoprecipitation with an IRBP antibody, 10% SDS-PAGE, Coomassie-stained bands digested with trypsin and identified by LC-MS (Mascot, human SwissProt).
In the case of “HSP-90β1/94-kDa glucose-regulated protein (Grp94) (from UniProt P14625 22-803)”, the binding entry is recorded as “binds”.

Consider HSP70-1A (from UniProt P0DMV8 1-641), for which the binding entry was “binds”.

Take “HSP60/chaperonin (from UniProt P10809 27-573)”: the binding entry is listed as “binds”.
